PubChem BioAssay AID1224826 – NIAID – 2016
Aim: 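Genes that change LPS-induced Tnf promoter activity in mouse macrophages when knocked down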 (primary screen). Cell system: RAW264.7 G9 macrophages from mouse bearing reporters for p65 (GFP) and the Tnf promoter (mCherry). Reagents: siRNA pool against mouse genes, 100 nM. Duration: 16 h of LPS stimulation, after 2 days of siRNA transfection. Challenge: bacterial lipopolysaccharide (Salmonella minnesota R595), 10 ng/ml. Measurement: 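Nuclear mCherry signal of the Tnf promoter reporter measured by imaging after background removal, scaled to each plate median and turned into robust z-scores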. Direction: Tnf reporter robust z-score: higher = stronger Tnf promoter reporter signal after LPS. Rule for the call: 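Called active when robust z-score is at most -1.3, matching the median of the Tlr4 knock-down control, or over 3; control wells and wells with under 50 cells never active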. Calls: active = Tnf reporter clearly lowered or raised; inactive = no clear change in Tnf reporter.
Shown is an unselected part of about 17,000 reagents tested. In the full data, about 1,110 (6.6%) were called active. 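Active means lowered or raised reporter signal; replicate intensities are raw and not normalised per plate.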 Unmarked entries are inactive. Further read-outs or replicates are left out here.

target gene,PubChem SID,Tnf reporter robust z-score,fewer than 50 cells in well
Tmem229b (transmembrane protein 229B),SID315480785,0.54,enough cells in well
Qrich1 (glutamine-rich 1),SID315473760,0.21,enough cells in well
Trmt10b (tRNA methyltransferase 10B),SID315473939,-0.49,enough cells in well
Nedd8,SID315468128,-1.03,enough cells in well
"Spin4 (spindlin family, member 4)",SID315480933,-0.08,enough cells in well
Lrrc47 (leucine rich repeat containing 47),SID315474650,,fewer than 50 cells per well; well left out of calls
Or14j7 (olfactory receptor family 14 subfamily J member 7),SID315481834,0.76,enough cells in well
Dnase1 (deoxyribonuclease I),SID315466351,1.86,enough cells in well
"Cnot7 (CCR4-NOT transcription complex, subunit 7)",SID315468626,-0.39,enough cells in well
Wdr37 (WD repeat domain 37),SID315477490,-0.24,enough cells in well
Miox (myo-inositol oxygenase),SID315471657,-0.02,enough cells in well
Cideb,SID315465971,0.27,enough cells in well
Atp5if1 (ATP synthase inhibitory factor subunit 1),SID315465572,0.17,enough cells in well
Arhgap29 (Rho GTPase activating protein 29),SID315477845,-0.07,enough cells in well
Txndc5 (thioredoxin domain containing 5),SID315476478,0.75,enough cells in well
Vmn1r177 (vomeronasal 1 receptor 177),SID315481839,1.36,enough cells in well
Tmem91 (transmembrane protein 91),SID315481260,-0.99,enough cells in well
Zbtb33 (zinc finger and BTB domain containing 33),SID315471689,-0.9,enough cells in well
Utp23 (UTP23 small subunit processome component),SID315475587,0.27,enough cells in well
Sdk2 (sidekick cell adhesion molecule 2),SID315479378,0,enough cells in well
Dcaf12 (DDB1 and CUL4 associated factor 12),SID315473685,1.21,enough cells in well
Or5ac24 (olfactory receptor family 5 subfamily AC member 24),SID315480602,-0.03,enough cells in well
Capza3 (capping actin protein of muscle Z-line subunit alpha 3),SID315465753,-1.69 (active),enough cells in well
Pgk2 (phosphoglycerate kinase 2),SID315468487,-0.37,enough cells in well

Records listed so far whose gene name begins with S or s (2):
target gene,PubChem SID,Tnf reporter robust z-score,fewer than 50 cells in well
"Spin4 (spindlin family, member 4)",SID315480933,-0.08,enough cells in well
Sdk2 (sidekick cell adhesion molecule 2),SID315479378,0,enough cells in well
